# From PubChem BioAssay AID445 (National Center for Advancing Translational Sciences (NCATS), 2006)
# This is one part of the list. Shown are side measurements of this screen, not its main read-out; they come without a call. The list favours compounds with an active or inconclusive main result. Potencies come from curve fits of mixed quality, noted in brackets.
# Experiment: IkB Signaling
# Conditions: ABC-DLBCL IkBa-CBG/CBR dual luciferase ratio (green luciferase fused to IkBa over red control in OCI-Ly3 lymphoma cells), 4 h; measured here: control luc red channel unless noted
# Procedure, shortened: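 Luminescence ratio of IκBα-fused green versus native red beetle luciferase in OCI-Ly3 cells, 4 h post-doxycycline with compound; red signal alone, scaled from basal (0%) to zero light (-100%), flagged nonspecific or cytotoxic effects.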
row,Structure (SMILES),AC50
1,Cc1ccc(C)c(N2CCN(C(=O)c3ccc(NS(=O)(=O)c4c(C)noc4C)cc3)CC2)c1,"10 µM [falling, partial curve]"
2,O=C(Nc1ccccc1)C1CCN(S(=O)(=O)c2ccc3c(c2)CCCN3C(=O)C2CCC2)CC1,"25.1 µM [falling, single point]"
3,COC(=O)c1[nH]c2cc(C)ccc2c1NC(=O)CN1CCc2cc(OC)c(OC)cc2C1,"12.6 µM [falling, partial curve]"
4,CC1(C)CC(NC(=O)c2coc(=O)c(Br)c2)CC(C)(C)N1,"31.6 µM [rising, single point] [measured here: IkB-luc green channel]"
5,CCN(CC)CCNC(=O)c1cc2c(-c3ccc(Cl)cc3)nn(C)c2s1,"39.8 µM [rising, single point] [measured here: IkB-luc green channel]"
6,Cc1ccc2c(CN3CCN(c4ccc(Cl)cc4)CC3)cc(=O)oc2c1,"39.8 µM [falling, single point]"
7,COc1ccc(C(=O)NCC(=O)OCc2cc(=O)n3nc(C4CCCCC4)sc3n2)cc1,"0.501 µM [rising, full curve]"
8,CC(=O)c1ccc(NC(=O)c2cnc(N3CCCC3)nc2C)cc1,"7.94 µM [rising, single point] [measured here: IkB-luc green channel]"
9,Cc1cc(C(=O)CSc2nnnn2C)c(C)n1-c1ccc2c(c1)OCCO2,"20 µM [falling, single point]"
10,O=C(C1CCCCC1)N(Cc1cccnc1)c1nc2ccc(Cl)cc2s1,"6.31 µM [falling, partial curve]"
11,CCOc1ccc(CN(CCc2ccc3c(c2)OCO3)Cc2cc(OC)cc(OC)c2)cc1,"2.51 µM [falling, partial curve]"
12,COc1ccc2nc(SCC(=O)N(C)C3CCCCC3)c(C#N)cc2c1,"15.8 µM [falling, partial curve]"
13,Cc1cc(=O)[nH]c2nnc(SCc3cccc(C(F)(F)F)c3)n12,"15.8 µM [falling, partial curve, poor fit]"
14,COc1ccc(C(=O)Nc2ccc(-c3nc4cc(C)ccc4o3)c(O)c2)cc1,"12.6 µM [falling, partial curve]"
15,Cc1nc(N2CCOCC2)c2c(C(=O)N3CCN(c4cccc(C(F)(F)F)c4)CC3)c(C)oc2n1,"39.8 µM [falling, single point]"
16,Cc1cccc2nc(-c3ccc(Cl)s3)c(Nc3ccc4c(c3)OCCO4)n12,"20 µM [falling, single point]"
17,Cc1ccc(OCC(=O)OCc2cc(=O)n3ccsc3n2)cc1C,"0.501 µM [rising, full curve, poor fit]"
18,COc1ccccc1N1CCN(c2ncc3c(n2)CCN(Cc2ccccc2C)C3)CC1,"20 µM [falling, partial curve]"
19,Cn1c(SCc2nc3ccccc3s2)nnc1-c1cccs1,"15.8 µM [falling, partial curve]"
20,CCOC(=O)c1ccc(NC(=O)CCc2c(C)nc3cc(-c4ccc(OC)cc4OC)nn3c2C)cc1,"0.501 µM [falling, full curve]"

row,Structure (SMILES),AC50
1,CC(C)Oc1ccc(C(=O)N2CCC(c3nc4ccccc4s3)CC2)cc1,"15.8 µM [falling, partial curve]"
2,Cc1ccc(SCCNC(=O)CN(c2cccc(C)c2C)S(C)(=O)=O)cc1,"12.6 µM [falling, partial curve]"
3,Cc1cc(Oc2ccc(-c3ccccc3)cc2)n2ncnc2n1,"6.31 µM [falling, partial curve]"
4,CC(C)(C)c1cc(C(c2cccnc2)N2CCN(CCO)CC2)cc(C(C)(C)C)c1O (stereo not given),"25.1 µM [falling, single point]"
5,CCOC(=O)c1c(C)oc2nc(C)nc(NCCc3ccc(OCC)cc3)c12,"15.8 µM [falling, partial curve]"
6,O=C(Nc1ccc(-n2nncc2-c2ccco2)cc1)c1ccc(F)cc1,"20 µM [falling, partial curve]"
7,N#CC1=C(N)NC(SCC(=O)Nc2ccccc2)=C(C#N)C12CCCC2,"10 µM [falling, partial curve]"
8,O=S(=O)(c1ccccc1)N1CCN(c2cc(-c3ccccc3)nc3ncnn23)CC1,"25.1 µM [rising, single point] [measured here: IkB-luc green channel]"
9,CCC(C)NC(=O)Cn1c(=O)n(-c2cc(OC)cc(OC)c2)c(=O)c2ccccc21 (stereo not given),"39.8 µM [falling, partial curve, poor fit]"
10,Cc1ccc(-n2ncc(C(=O)NCc3cccs3)c2C2CCN(C(=O)OC(C)(C)C)CC2)cc1C,"15.8 µM [falling, partial curve]"
11,Cc1c(C(=O)OCCOc2ccccc2)[nH]c2c1C(=O)CCC2,"12.6 µM [falling, partial curve]"
12,Cc1cccc(Cn2c(CNS(=O)(=O)c3ccc(Cl)s3)nc3cccnc32)c1,"39.8 µM [falling, single point]"
13,CC(C)CN(CCNC(=O)c1cc(=O)[nH]c2ccc(S(=O)(=O)N3CCCCCC3)cc12)CC(C)C,"7.94 µM [rising, partial curve]"
14,Cn1c(=O)oc2cc(S(=O)(=O)NCCC(=O)Nc3ccc(F)c(Cl)c3)ccc21,"15.8 µM [falling, partial curve]"
15,CCOc1ccc(NC(=O)CCCN2C(=O)C(c3ccccc3)Oc3cccnc32)cc1 (stereo not given),"0.2 µM [rising, full curve]"
16,CS(=O)(=O)c1ncc(N(Cc2ccccc2)Cc2ccco2)c(C(=O)Nc2cccc(C(F)(F)F)c2)n1,"3.16 µM [falling, partial curve]"
17,CCOC(=O)c1c(NC(=O)c2cc(-c3ccccc3)on2)sc2c1CCCC2,"12.6 µM [falling, partial curve]"
18,O=C(NCCc1ccc(Cl)cc1)c1ccc2nc(Cc3ccccc3)oc2c1,"0.794 µM [falling, full curve]"
19,Cc1cc(C)c(NC(=O)CSc2nc(=O)n(Cc3ccco3)c3c2CCC3)c(C)c1,"3.16 µM [falling, partial curve]"
20,COc1cccc(-c2nc(SCc3cc(=O)c4cc(Cl)ccc4[nH]3)n[nH]2)c1,"15.8 µM [falling, partial curve]"

# Structures from the list above containing a CF3 group:
row,Structure (SMILES),AC50
13,Cc1cc(=O)[nH]c2nnc(SCc3cccc(C(F)(F)F)c3)n12,"15.8 µM [falling, partial curve, poor fit]"
15,Cc1nc(N2CCOCC2)c2c(C(=O)N3CCN(c4cccc(C(F)(F)F)c4)CC3)c(C)oc2n1,"39.8 µM [falling, single point]"
16,CS(=O)(=O)c1ncc(N(Cc2ccccc2)Cc2ccco2)c(C(=O)Nc2cccc(C(F)(F)F)c2)n1,"3.16 µM [falling, partial curve]"

# The results go on.

row,Structure (SMILES),AC50
1,CCCCC[C@H](O)/C=C\[C@H]1[C@H](C/C=C\CCCC(=O)O)[C@@H](O)C[C@H]1O (tested in a mixture with another compound),"0.501 µM [rising, full curve]"
2,Cc1ccc(S(=O)(=O)Cn2nnnc2C(c2ccccn2)N2CCN(c3ccccc3)CC2)cc1 (stereo not given),"39.8 µM [rising, partial curve, poor fit] [measured here: IkB-luc green channel]"
3,COc1cccc(-n2nnnc2SCC(=O)N2CCCc3ccccc32)c1,"3.98 µM [falling, full curve, poor fit]"
4,Cc1cc2c(cc1S(=O)(=O)Nc1cccc(C(F)(F)F)c1)OCCN2C,"0.794 µM [falling, full curve]"
5,CC(C)Oc1ccc(CNC(=O)Cc2ccc(NC(=O)N3CCSc4ncccc43)cc2)cc1,"15.8 µM [falling, partial curve]"
6,Cc1ccc2c(c1)c(=O)c(S(=O)(=O)c1ccc(F)cc1)cn2CC(=O)Nc1ccc2c(c1)OCO2,"6.31 µM [falling, partial curve]"
7,c1ccc(CC2CCN(c3nc4ccccc4n4nnnc34)CC2)cc1,"3.98 µM [falling, partial curve]"
8,CC(C)(C)C1CCc2c(sc(NC(=O)c3ccccc3F)c2C(=O)N2CCCCC2)C1 (stereo not given),"25.1 µM [falling, partial curve]"
9,COc1ccc(NC2=C(C)C(=O)CC2)cc1,"20 µM [rising, partial curve] [measured here: IkB-luc green channel]"
10,CCOC(=O)c1cccc(NC(=O)CC(c2ccc(F)cc2)N2Cc3ccccc3C2=O)c1 (stereo not given),"6.31 µM [falling, single point]"
11,CCCOc1ccc(OC(=O)c2sc3ncn(Cc4cccc(F)c4)c(=O)c3c2C)cc1,"1.26 µM [falling, full curve, poor fit]"
12,CN(C(=O)c1cc2sccc2n1C)C1CCCCC1,"10 µM [falling, partial curve]"
13,COc1ccccc1Nc1nc(-c2cccs2)cs1,"6.31 µM [falling, full curve, poor fit]"
14,Cc1nc2cc(-c3cccc(F)c3)nn2c(C)c1CCC(=O)N1CCN(c2ccc(F)cc2)CC1,"2.51 µM [falling, partial curve]"
15,Cc1cccc(-c2noc(CN(C(=O)c3ccc(C)c(C)c3)C(C)C)n2)c1,"15.8 µM [falling, partial curve]"
16,Cc1csc2nc(-c3cccc(NC(=O)c4cccc(F)c4)c3)cn12,"39.8 µM [falling, partial curve]"
17,CCOc1ccc(CCNC(=O)C2=C(C)C(=O)OC23CCC(C)CC3)cc1OCC (stereo not given),"3.98 µM [falling, single point]"
18,O=C(CN(C(=O)c1cc2c(s1)CCC2)C1CCCC1)NCc1cccs1,"12.6 µM [falling, partial curve]"
19,Cc1ccc(C(=O)c2oc3ccccc3c2NC(=O)c2nc(S(C)(=O)=O)ncc2Cl)cc1F,"39.8 µM [falling, single point]"
20,CCOC(=O)Cn1c(=O)oc2cc(S(=O)(=O)NCc3ccc(F)cc3)ccc21,"31.6 µM [falling, single point]"
